For part of these data: Where a sequence shows no end group, the ends are not given.
Assays:
[1] = general procedure: Fmoc solid-phase peptide synthesis; Fmoc-Gly-sulfamylbenzoyl-MBHA resin; 2-chlorotrityl chloride PS resin; HATU; DIC/HOBt; settings: TFA salt
peptide synthesis = settings: coupling step, TFA salt
[2] = general procedure: Fmoc solid-phase peptide synthesis; Fmoc-Gly-sulfamylbenzoyl-MBHA; HATU; DIC/HOBt; settings: whole synthesis, scale 0.25 mmol, TFA salt
[3] = late stage modification step, HPLC, YMC C-18/C-4, UV 220 or 254 nm (area %)
[4] = whole synthesis, 220 nm, area %

Substance | step yield ([1]; coupling step) | step yield ([1]; late stage modification step) | also measured
Aminodioxaoctanoyl-Thr(OBnzl)-Lys(Z)Pro-Pro-Arg(NO2)Obzl (3) | yield 82% | yield 87% | –
Cyclic disulfide CTKPPRC | – | – | final HPLC purity ([1]; oxidative folding step, 220 nm): >99% (area %); oxidative folding yield ([1]; oxidative folding step): 75% yield
DPPE-Glutaroyl-Gly-Thr(Obzl)-Lys(Z)-Pro-Pro-Arg(NO2)Obzl | – | – | step yield ([1]; lipidation step): 73%; final HPLC purity ([1]; lipidation step, UV 254 nm): 100%
DPPE-Glutaroyl-Gly-Thr-Lys-Pro-Pro-Arg-OH (DPPE-GLU-GTKPPR) | – | 74% | final HPLC purity ([1]; late stage modification step, UV 220 nm): 100%
DPPE-Glutaroyl-di(aminodioxaoctanoyl)-Thr-Lys-Pro-Pro-Arg-OH | – | Yield , 39.5% | step yield ([1]; lipidation step): yield 73%
F-108-(OCH2COHNGTKPPR)2 | – | 77% | –
Fmoc-HN—CH2—CH2—O—CH2—CH2—O—CH2—CO-Thr(t-Bu)-Lys(Boc)-Arg(Pmc)-t-Bu | – | – | conjugation yield ([1]; conjugation step): 65%
Fmoc-Lys(Boc)-Pro-Pro-Arg(Pmc)-t-Bu | – | – | step yield (peptide synthesis): 100%
Fmoc-Thr(t-Bu)-Lys(Boc)-Pro-Pro-Arg(Pmc)-t-Bu | 70% | – | –
Gly-Thr(Obzl)-Lys(Z)Pro-Pro-Arg(NO2)Obzl | yield 86% | 94.5% | crude HPLC purity [1, 3]: 100%
H2N-G-T(tBu)-k(Mtt)-Pro-Pro-R(Pmc)-OtBu | 84% | – | –
H2N-T (tBu)-K (Mtt)-Pro-Pro-Arg (Pmc)-OtBu | 90% | – | –
H-Lys(Boc)-Pro-Pro-Arg(Pmc)-t-Bu | – | 89% | –
H-Thr(t-Bu)-Lys(Boc)-Pro-Pro-Arg(Pmc)-t-Bu | – | 34% | –
Lys(Z)-Pro-Pro-Arg(NO2)Obzl | – | 95% | crude HPLC purity [1, 3]: 95.7%
N-glutaroyl-Gly-Thr(Obzl)-Lys(Z)-Pro-Pro-Arg(NO2)Obzl | – | 95.6% | crude HPLC purity ([1]; late stage modification step, UV 254 nm): 97.7%
TKPPR Tetramer Conjugated to oxa-PnAO Metal Chelating Group (BRU-363) | – | – | final HPLC purity ([1]; conjugation step, 220 nm): Purity>98%
TKPPR-K(RPPKT)-K[K(RPPKT)TKPPR]-G-Z-OG | – | – | final HPLC purity [1, 4]: >98%; isolated yield ([1]; whole synthesis): 15%
TKPPR-OH | – | 84% | –
Thr(Obzl)-Lys(Z)-Pro-Pro-Arg(NO2)Obzl | yield 91% | 98% | crude HPLC purity [1, 3]: 98.3%
Thr-Lys-Pro-Pro-Arg-Lys(Arg-Pro-Pro-Lys-Thr)-Gly-TTDA-OG | – | – | final HPLC purity [1, 4]: >99%; isolated yield [2]: 20%
di(aminodioxaoctanoyl)-Thr(OBzl)-Lys(Z)Pro-Pro-Arg(NO2)OBzl (4) | yield 79.5% | yield 91% | –

— US20020147136A1 (priority 2000, published 2002)
